Measurements as given in the supplement of paper PMC8256030.
The other results are listed elsewhere or left out. Single values are uncertain here, since repeats match poorly.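 HEK293T cells were given each compound shortly before transfection with a reporter in which red mCherry is followed by the SARS-CoV-2 frameshift element and then GFP in the −1 frame, so GFP appears only after frameshifting.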

What follows are molecules tested on HEK293T (assay: percent viability (nuclei count) relative to control; higher = more viable cells). Details: 10 µM; 24 h.

Row | SMILES | percent viability
1 | NC(=O)N/N=C/c1ccc([N+](=O)[O-])o1 [Nitrofural] | 263%
2 | C=CCc1ccc(O)c(OC)c1 | 117%
3 | N=C(N)NCCN1CCCCCCC1 [guanethidine] | 255%
